Measurements reported in PubChem BioAssay AID445 (National Center for Advancing Translational Sciences (NCATS), 2006).
The list shows a part of the results. The main result of the screen is listed elsewhere. These columns were measured beside it and carry no call. Compounds called inactive in the main read-out are mostly missing here. Potencies come from curve fits of mixed quality, noted in brackets. *1 amine or outer side, *2 acyl side, *3 side chain or, on linkers, in order; H or OH if unused. Where a SMILES comes first, the peptide text is derived from it. Bridges are numbered along the chain shown (N, C = ends). Roman numbers before positions name the chains, in order. [ ]: non-standard residue; d: D form. Actinocin(9to1) = Cc1c2oc3c(C)ccc(C(=O)[*:1])c3nc-2c(C(=O)[*:2])c(N)c1=O; aThr = C[C@H](O)[C@H](N)C(=O)O; NMeV = CN[C@H](C(=O)O)C(C)C; Sar = CNCC(=O)O

Assay: IkB Signaling
Conditions: ABC-DLBCL IkBa-CBG/CBR dual luciferase ratio (green luciferase fused to IkBa over red control in OCI-Ly3 lymphoma cells), 4 h; measured here: control luc red channel unless noted
Outline: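 In this assay, an IκBα–CBG68 fusion accumulates when IKK-driven degradation is blocked; native CBR normalizes for cell number. OCI-Ly3 cells were treated 4 h with compound and doxycycline, then green and red light read after Chroma-Glo addition.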

Structure (SMILES) | AC50
CCS(=O)(=O)N1CCc2cc(C(=O)Nc3cccc(Cl)c3C)ccc21 | 10 µM [falling, partial curve]
COc1ccccc1C(=O)NCCn1cc(SCC(=O)Nc2cc(C)on2)c2ccccc21 | 15.8 µM [falling, partial curve]
COc1ccc(Nc2nnc(Cc3ccc(Cl)cc3)c(=O)[nH]2)c(OC)c1 | 15.8 µM [falling, partial curve]
Cc1cc(C)c2c(CC(=O)Nc3ccc(Cl)cn3)coc2c1 | 7.94 µM [falling, partial curve]
Cc1ccc(CSCc2ccc(C(=O)NCCc3ccc(Cl)cc3)o2)cc1 | 25.1 µM [falling, single point]
Cc1cc(C)cc(N2C(=O)CSC23C(=O)N(CC(=O)NCCc2ccccc2)c2ccccc23)c1 (stereo not drawn) | 0.0316 µM [falling, full curve, poor fit]
CCOC(=O)C1=C(CS(=O)(=O)c2ccc(C)cc2)NC(=O)NC1c1ccc(C(C)C)cc1 (stereo not drawn) | 25.1 µM [falling, partial curve]
COc1ccccc1NCc1cccn1-c1nnc(N2CCOCC2)s1 | 25.1 µM [falling, single point]
Cc1ccc(C)c(CN2C(=O)CSc3ccc(C(=O)NCc4ccc(F)cc4)cc32)c1 | 3.16 µM [falling, single point]
O=C(O)CCNS(=O)(=O)c1ccc2c(c1)Cc1ccccc1-2 | 1.26 µM [falling, full curve]
COc1ccc(-n2nc(C(=O)Nc3ccccc3OC)c3c4ccccc4n(C)c3c2=O)cc1Cl | 15.8 µM [rising, partial curve]
CCC(OC(=O)CCc1nc2ccccc2[nH]c1=O)C(=O)c1ccccc1 (stereo not drawn) | 31.6 µM [falling, single point]
Cc1ccc(CSc2nc(-c3cccs3)ccc2C#N)cc1 | 7.94 µM [rising, partial curve]
COc1cccc(-c2nn(C)c3sc(C(=O)NCCc4ccc(Cl)cc4)cc23)c1 | 5.01 µM [falling, full curve]
CCOc1ccc(NC(=O)NCCCN2CCN(c3ccc(F)cc3)CC2)cc1 | 0.631 µM [falling, partial curve]
O=C(O)C1Nc2c(O)cccc2C2C=CCC12 (stereo not drawn) | 12.6 µM [falling, partial curve]
CCc1ccc2occ(CC(=O)Nc3c(C(=O)Nc4ccc(C)cc4)oc4ccccc34)c2c1 | 10 µM [falling, partial curve]
COC(=O)c1c(SCC(=O)Nc2cc(C)cc(C)c2)[nH]c2ccccc2c1=O | 12.6 µM [falling, partial curve]
Cc1ccc(C)c(CN2C(=O)c3ccccc3S(=O)(=O)c3ccc(C(=O)N4CCCCCC4)cc32)c1 | 10 µM [falling, partial curve]

Structure (SMILES) | AC50
Cc1csc(C(C#N)C(=O)c2cc3ccccc3o2)n1 (stereo not drawn) | 2.51 µM [falling, full curve]
CC(=O)Nc1ccc(C2Sc3ccccc3NC3=C2C(=O)c2ccccc23)cc1 (stereo not drawn) | 3.16 µM [rising, single point]
Cc1oc2ncn(CC(C)C)c(=O)c2c1C(=O)NCCCN1CCCCC1 | 0.398 µM [rising, full curve]
COc1cccc(NC(=O)CSc2ncc(S(=O)(=O)c3ccc(C)c(C)c3)c(=O)[nH]2)c1 | 15.8 µM [falling, partial curve]
Cc1ccc2c(c1)N(CC(=O)N1CCN(c3nc4ccccc4s3)CC1)C(=O)C(C)O2 (stereo not drawn) | 12.6 µM [falling, partial curve]
CCc1ccc(NC(=O)CSc2nnc(Cc3cccn3C)n2-c2ccc(OC)cc2)cc1 | 12.6 µM [falling, partial curve]
Cc1c2oc3c(C)ccc(C(=O)N[C@@H]4C(=O)N[C@@H](C(C)C)C(=O)N5CCC[C@@H]5C(=O)N(C)CC(=O)N(C)[C@@H](C(C)C)C(=O)O[C@H]4C)c3nc-2c(C(=O)N[C@@H]2C(=O)N[C@@H](C(C)C)C(=O)N3CCC[C@@H]3C(=O)N(C)CC(=O)N(C)[C@@H](C(C)C)C(=O)O[C@H]2C)c(N)c1=O (I: [aThr]V[dP][Sar][NMeV] / II: [aThr]V[dP][Sar][NMeV]; ester I:1-I:C, II:1-II:C; linker I:N-II:N via Actinocin(9to1)) | 0.0158 µM [falling, full curve]
OC(C#Cc1ccccn1)c1cccs1 (stereo not drawn) | 20 µM [rising, single point] [measured here: IkB-luc green channel]
COc1ccc(NC(=O)c2oc3ccccc3c2NC(=O)c2cc3ccccc3o2)cc1 | 2.51 µM [falling, partial curve]
CCc1ccc(NS(=O)(=O)c2ccc3[nH]cc(C(=O)NCC4CCCO4)c(=O)c3c2)cc1 (stereo not drawn) | 7.94 µM [falling, partial curve]
Cc1ccccc1S(=O)(=O)Cc1ccc(C(=O)NC2CCCCC2)o1 | 0.0251 µM [falling, full curve, poor fit]
Cc1ccc(OC(=O)c2cc(-c3ccc4c(c3)OCCO4)on2)cc1C | 15.8 µM [falling, partial curve]
COc1ccc(OC)c2c(=S)c3ccccc3[nH]c12 | 2 µM [falling, full curve]
CCOc1ccc(NC(=O)CSc2nnc3scc(-c4ccc(Cl)cc4)n23)cc1 | 39.8 µM [falling, single point]
CCOc1cccc2cc(-c3nc4ccc(C(=O)O)cc4[nH]3)c(=O)oc12 | 0.126 µM [falling, full curve]
COc1ccc(C)cc1S(=O)(=O)N1CCN(c2cccc(Cl)c2)CC1 | 25.1 µM [falling, single point]
Cc1c(O)ccc2c3c(c(=O)oc12)CCC(C)C3 (stereo not drawn) | 25.1 µM [falling, partial curve]
COc1ccc(Nc2ncc(C(=O)N3CCN(c4cccc(Cl)c4)CC3)c3ccccc23)cc1 | 7.94 µM [falling, full curve]
Cc1ccc(C)c(-n2c(CCC(=O)O)ccc2-c2ccc(Cl)cc2)c1 | 3.98 µM [falling, full curve]

Rewritten in markdown: 7 of the compounds above

| Structure (SMILES) | AC50 |
| --- | --- |
| COc1cccc(NC(=O)CSc2ncc(S(=O)(=O)c3ccc(C)c(C)c3)c(=O)[nH]2)c1 | 15.8 µM [falling, partial curve] |
| Cc1ccc2c(c1)N(CC(=O)N1CCN(c3nc4ccccc4s3)CC1)C(=O)C(C)O2 (stereo not drawn) | 12.6 µM [falling, partial curve] |
| CCc1ccc(NC(=O)CSc2nnc(Cc3cccn3C)n2-c2ccc(OC)cc2)cc1 | 12.6 µM [falling, partial curve] |
| Cc1c2oc3c(C)ccc(C(=O)N[C@@H]4C(=O)N[C@@H](C(C)C)C(=O)N5CCC[C@@H]5C(=O)N(C)CC(=O)N(C)[C@@H](C(C)C)C(=O)O[C@H]4C)c3nc-2c(C(=O)N[C@@H]2C(=O)N[C@@H](C(C)C)C(=O)N3CCC[C@@H]3C(=O)N(C)CC(=O)N(C)[C@@H](C(C)C)C(=O)O[C@H]2C)c(N)c1=O (I: [aThr]V[dP][Sar][NMeV] / II: [aThr]V[dP][Sar][NMeV]; ester I:1-I:C, II:1-II:C; linker I:N-II:N via Actinocin(9to1)) | 0.0158 µM [falling, full curve] |
| OC(C#Cc1ccccn1)c1cccs1 (stereo not drawn) | 20 µM [rising, single point] [measured here: IkB-luc green channel] |
| COc1ccc(NC(=O)c2oc3ccccc3c2NC(=O)c2cc3ccccc3o2)cc1 | 2.51 µM [falling, partial curve] |
| CCc1ccc(NS(=O)(=O)c2ccc3[nH]cc(C(=O)NCC4CCCO4)c(=O)c3c2)cc1 (stereo not drawn) | 7.94 µM [falling, partial curve] |
